The supplement of paper PMC4371806
Whole data set: some 1,600 compounds, median “plate-normalized OD600 growth (mean of duplicates)” near 0.31, cut for the lowest 2% near 0.23. Some of the results follow.

Tested on: Escherichia coli BW25113
Experiment: plate-normalized OD600 growth (mean of duplicates) (OD600 (normalized)); higher = more growth (less inhibition)
Details: 10 µM
Experimental: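 E. coli BW25113 in LB (100 µl, 96-well, no shaking) was exposed to 10 µM of each compound (here the ChemBridge subset of a ~30,000-member library) and grown at 37°C for 24 h or 15°C for 48 h, in duplicate. Growth was read as OD600 and the duplicate ODs were normalized across screening plates to correct plate-to-plate variation.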

Structure (SMILES) | plate-normalized OD600 growth (temperature: 15°C, 48 h) | plate-normalized OD600 growth (temperature: 37°C, 24 h)
Cc1ccc(NCC(O)COc2ccccc2)cc1C (centres undefined) | 0.254 | 0.638
CC(N=C1NC(C)(C)Cc2ccccc21)C(=O)O (centres undefined) | 0.253 | 0.628
NS(=O)(=O)c1cccc(S(=O)(=O)c2ccc(Cl)c(Cl)c2)c1 | 0.253 | 0.608
Cc1ccc(OCCCNC(C)(C)C)cc1 | 0.244 | 0.608
O=C(NC1CCN(Cc2ccccc2)CC1)c1ccccc1Br | 0.272 | 0.625
CC(C)NS(=O)(=O)c1cccc2cccnc12 | 0.257 | 0.621
CSc1nc(-c2ccccc2)nc(SC)c1C(C)=O | 0.251 | 0.607
Cc1nc2c(c3c1[nH]c1ccccc13)C(=O)CC(C)(C)C2 | 0.256 | 0.605
Nn1cnc2scc(-c3ccccc3)c2c1=O | 0.267 | 0.626
O=C(NC1CCCCC1)C1CC1c1ccccc1 (centres undefined) | 0.25 | 0.606
N#CC1=C(SCc2ccccc2)NC(=O)CC1c1ccc(O)cc1 (centres undefined) | 0.233 | 0.607
COc1c(Cl)cnn(-c2ccccc2)c1=O | 0.231 | 0.633
COCCOC(=O)Nc1nc2ccc(OC)cc2s1 | 0.236 | 0.604
O=[N+]([O-])c1ccc2[nH]c3c(c2c1)CCCC3NC1CCN(CCc2ccccc2)CC1 (centres undefined) | 0.249 | 0.578
O=C(c1cccs1)N1CCc2ccccc21 | 0.242 | 0.636
COc1ccc(O)c(CN2CCC(N3CCCCC3)CC2)c1 | 0.277 | 0.627
C=CCSc1nc(O)c(CC)c(=O)n1-c1ccccc1 | 0.233 | 0.62
COc1cc(Br)c(CN2CCCN(C)CC2)cc1OC | 0.268 | 0.604
N#CC1=C(SCC(N)=O)NC(=O)C(C#N)C12CCCCC2 (centres undefined) | 0.253 | 0.621
Cc1cccc(NS(=O)(=O)c2cccc(C(=O)Nc3ccccc3C)c2)c1 | 0.245 | 0.591
CN1CCCN(Cc2cccc([N+](=O)[O-])c2)CC1 | 0.22 | 0.627
CC(C)Cc1cc(-c2cccc(Br)c2)c(C#N)c(N)n1 | 0.236 | 0.615
CN1CCCC1CCNC1C2CC3CC(C2)CC1C3 (centres undefined) | 0.248 | 0.635

Structure (SMILES) | plate-normalized OD600 growth (temperature: 15°C, 48 h) | plate-normalized OD600 growth (temperature: 37°C, 24 h)
COc1cccc(C(=O)Nc2nc3ccc(Cl)cc3s2)c1 | 0.242 | 0.584
N#CSCCCCOc1ccccc1Cl | 0.251 | 0.605
O=C(Nc1ccc(F)cc1F)c1cccc(Cl)c1 | 0.245 | 0.6
COc1ccc([N+](=O)[O-])cc1NCc1ccccc1Br | 0.27 | 0.627
C=C(C)CN(CC)C1CCN(C(C)=O)CC1 | 0.226 | 0.627
O=S(=O)(NCCN1CCCC1)c1cccc2nsnc12 | 0.245 | 0.616
CCOC(=O)N1CCN(Cc2c(F)cccc2F)CC1 | 0.263 | 0.656
OC1CCN(Cc2c(Cl)cccc2Cl)CC1 | 0.257 | 0.629
CCN(CC)C(=O)C1CCCN(Cc2ccc(OC)c(C)c2)C1 (centres undefined) | 0.258 | 0.635
NCCCNc1ccc(Cl)cc1[N+](=O)[O-] | 0.248 | 0.62
Cc1ccc(C2C(C#N)=C(N)Oc3n[nH]c(C)c32)s1 (centres undefined) | 0.246 | 0.658
COc1ccccc1N1Cc2ccc(OC)c(OC)c2C1=O | 0.256 | 0.635
Fc1ccccc1N1CCN(Cc2ccco2)CC1 | 0.247 | 0.603
CC(C)(C)c1ccccc1OCCCCSC#N | 0.209 | 0.619
COc1ccc(CC(=O)Nc2ccccc2)cc1OC | 0.229 | 0.601
COc1ccc(-c2csc(N)n2)cc1Br | 0.26 | 0.647
O=C(Nc1cccc(O)c1)C(Cc1ccc([N+](=O)[O-])cc1)N1C(=O)c2ccccc2C1=O (centres undefined) | 0.254 | 0.637
Nc1nonc1C(=NCc1ccccc1)NO | 0.275 | 0.651
CC(=O)NCc1cccc(CNC(C)=O)n1 | 0.248 | 0.626
COc1ccc(CC(=O)Nc2cc(C)cc(C)c2)cc1 | 0.265 | 0.635
CC(=O)c1c(C(C)=O)c(C)n(-c2ccc(C)c(N)c2)c1C | 0.254 | 0.612
CC1CCCC(C)N1C(=O)c1ccc(Br)cc1 (centres undefined) | 0.25 | 0.617
COc1cccc(OC)c1C(=O)Nc1ccccc1C | 0.246 | 0.627

Taken from above.
For plate-normalized OD600 growth (temperature: 15°C, 48 h), O=C(Nc1cccc(O)c1)C(Cc1ccc([N+](=O)[O-])cc1)N1C(=O)c2ccccc2C1=O (centres undefined) shows 0.254
For plate-normalized OD600 growth (temperature: 37°C, 24 h), O=C(Nc1ccc(F)cc1F)c1cccc(Cl)c1 shows 0.6
For plate-normalized OD600 growth (temperature: 37°C, 24 h), NCCCNc1ccc(Cl)cc1[N+](=O)[O-] shows 0.62

(cont.)

Structure (SMILES) | plate-normalized OD600 growth (temperature: 15°C, 48 h) | plate-normalized OD600 growth (temperature: 37°C, 24 h)
CC1(C)CC(=O)C(C(N)=NC(=O)c2ccccc2)=C(O)C1 | 0.23 | 0.614
CC(c1ccccc1)N1CCC(=O)C2=C1CCCC2 (centres undefined) | 0.241 | 0.604
Cc1nn2c3ccccc3n(C)c2c1C=O | 0.236 | 0.62
C=CCSc1nc2c(cc1C#N)CCC2 | 0.25 | 0.607
N#CC1=C(N)NC(SCc2ccccc2)=C(C#N)C12CCCCC2 | 0.245 | 0.603
Cc1onc(-c2ccccc2Cl)c1C(=O)NCc1ccc2c(c1)OCO2 | 0.261 | 0.619
c1ccc(-c2nnc(N3CCOCC3)nc2-c2ccccc2)cc1 | 0.236 | 0.606
COc1ccc(S(=O)(=O)Nc2cc(C)ccn2)cc1 | 0.245 | 0.602
COc1ccc2[nH]c3c(c2c1)CCn1c-3nc2sc3c(c2c1=N)CCCC3 | 0.254 | 0.607
CCOc1ccc(NC(=O)c2cccnc2)cc1 | 0.271 | 0.623
Cc1nc2c(cnn2-c2ccccc2)c(=O)[nH]1 | 0.243 | 0.613
CCCc1noc2c1C(=O)CC(C)(C)C2 | 0.261 | 0.622
CSC1=C(C#N)C(c2ccc(OCc3ccccc3)cc2)CC(=O)N1 (centres undefined) | 0.243 | 0.628
Cc1cccc(C)c1N(CC(=O)O)S(C)(=O)=O | 0.243 | 0.616
O=c1[nH][nH]c(=O)c2cc([N+](=O)[O-])ccc12 | 0.258 | 0.634
O=C(NC1CCN(Cc2ccccc2)CC1)c1sc2ccccc2c1Cl | 0.243 | 0.598
CC(=O)c1c(C)n([O-])c2ccccc2[n+]1=O | 0.262 | 0.639
C=CCc1c(C)[nH]c2ccccc2c1=O | 0.24 | 0.601
c1ccc(CCCN2CCOCC2)cc1 | 0.251 | 0.615
CC(=O)Nc1cccc(NC(=O)Nc2cccc(Cl)c2)c1 | 0.236 | 0.585
Cc1ncn(C23CC4CC(CC(C4)C2)C3)n1 | 0.242 | 0.622
OC1CCN(Cc2ccc(Br)s2)CC1 | 0.251 | 0.603
CN(C)CCN(C)Cc1ccccc1Br | 0.249 | 0.611

Structure (SMILES) | plate-normalized OD600 growth (temperature: 15°C, 48 h) | plate-normalized OD600 growth (temperature: 37°C, 24 h)
COc1ccc(CN2CCN(c3ccc([N+](=O)[O-])cc3)CC2)c(OC)c1 | 0.252 | 0.593
CN1CCN(C(=O)CC(c2ccccc2)c2ccccc2)CC1 | 0.253 | 0.62
O=c1[nH]c(/C=C/c2ccccc2F)nc2ccccc12 | 0.243 | 0.603
Cc1cc(C)c(OCCN2CCCCC2)c(C)c1 | 0.254 | 0.638
CC1CCC(N2CCN(c3ncccn3)CC2)C1 (centres undefined) | 0.234 | 0.61
COc1ccccc1-c1nc(-c2ccccc2Cl)no1 | 0.256 | 0.648
COc1ccc(CCN2C(=O)CN(Cc3ccccc3)CC2=O)cc1OC | 0.263 | 0.635
Cc1cc(Nc2ccc(O)cc2)c2cccc(C)c2n1 | 0.246 | 0.64
CC1=C(C#N)C(c2cccnc2)C2=C(CC(c3ccc(Cl)cc3)CC2=O)N1 (centres undefined) | 0.225 | 0.623
O=C(Nc1c(Cl)cccc1Cl)c1cccs1 | 0.243 | 0.609
CC(C)(C)c1cc(C(C)(C)C)cc(S(N)(=O)=O)c1 | 0.256 | 0.623
CC1(C)Cc2ccccc2C(=NCCC(=O)O)N1 | 0.248 | 0.61
Cc1ccc2c(N)c(C(N)=O)sc2n1 | 0.241 | 0.615
Cc1ccc(NC(=O)c2cc(-c3ccccc3)n[nH]2)cc1 | 0.251 | 0.603
c1ccc(CN2CCc3ccccc3C2)nc1 | 0.242 | 0.584
CC(C)(C)S(=O)(=O)c1ccc(S(=O)(=O)C(C)(C)C)s1 | 0.259 | 0.617
COc1cc(OC)c(CN2CCN(c3ccc([N+](=O)[O-])cc3)CC2)cc1Br | 0.234 | 0.599
COc1ccc(-c2c(C#N)c(N)nc3c2CCC3)cc1 | 0.248 | 0.639
Cc1cc(NC(=O)CN(c2ccccc2F)S(C)(=O)=O)ccc1Br | 0.241 | 0.588
C1CCCC(NCCN2CCCCC2)CCC1 | 0.234 | 0.588
CCN(CC)C(=O)c1ccc(C(O)C(Cl)(Cl)Cl)o1 (centres undefined) | 0.233 | 0.613
O=[N+]([O-])c1ccc(CN2CCCCCCC2)cc1 | 0.255 | 0.607
COc1ccccc1C=C(C#N)c1nc(-c2ccc3c(c2)OCO3)cs1 | 0.231 | 0.598

Structure (SMILES) | plate-normalized OD600 growth (temperature: 15°C, 48 h) | plate-normalized OD600 growth (temperature: 37°C, 24 h)
CCCSc1nc(C)cc(COC)c1C#N | 0.229 | 0.637
CCOc1cc(/C=C(\C#N)c2nc(-c3ccc(OC)cc3)cs2)ccc1O | 0.262 | 0.615
CSc1ccc(CN(C)C2CCN(C)CC2)cc1 | 0.255 | 0.621
COc1cc(C(=O)n2c(C)nc3ccccc32)cc(OC)c1OC | 0.246 | 0.616
O=C(COc1ccccc1)Nc1ccccc1Cl | 0.279 | 0.622
O=C(c1ccc(-c2ccccc2)cc1)N1CCCC1 | 0.241 | 0.596
CC(=O)Nc1ccc(NCCC#N)cc1 | 0.231 | 0.631
Cc1nc(C)c(-c2cc(C)c3c(C)nc(C)nc3n2)c(N)n1 | 0.252 | 0.617
CCOc1ccc(Br)cc1/C=C(\C#N)c1nc2ccccc2[nH]1 | 0.255 | 0.657
Nc1ccc(Cl)cc1SCC(=O)O | 0.242 | 0.599
COC1C2C3CC4C5C3C1C5C(O)(c1ccccc1)C42 (centres undefined) | 0.247 | 0.611
O=C(CSC1CC(=O)N(c2ccc(F)cc2)C1=O)Nc1ccc(Cl)cc1 (centres undefined) | 0.25 | 0.618
CCCC(=O)N(c1ccccc1)C1CC(C)Nc2ccccc21 (centres undefined) | 0.228 | 0.628
N#CC1=C(N)SC(N)=C(C#N)C1c1cccnc1 | 0.26 | 0.62
Cc1ccccc1C(=O)N(C)Cc1ccccc1 | 0.256 | 0.623
c1ccc(N2CCN(C3CC4CCC3C4)CC2)cc1 (centres undefined) | 0.256 | 0.618
COc1cc(C(=O)N2CCCCC2)cc(OC)c1OC | 0.254 | 0.618
COc1ccccc1N1CCN(CCC(=O)NN)CC1 | 0.254 | 0.611
NC(=O)CCC(=O)NC12CC3CC(CC(C3)C1)C2 | 0.227 | 0.599
O=C(Nc1ccccc1F)C1CC(=O)N(c2ccc(Br)cc2)C1 (centres undefined) | 0.249 | 0.609

Given with tabs: entries from further up.
Structure (SMILES)	plate-normalized OD600 growth (temperature: 15°C, 48 h)	plate-normalized OD600 growth (temperature: 37°C, 24 h)
COc1ccccc1N1CCN(CCC(=O)NN)CC1	0.254	0.611
NC(=O)CCC(=O)NC12CC3CC(CC(C3)C1)C2	0.227	0.599
O=C(Nc1ccccc1F)C1CC(=O)N(c2ccc(Br)cc2)C1 (centres undefined)	0.249	0.609
